Screening data

By UniProt entry, the sequences of proteins in these tests, tags left out.
UniProt P04637, whole entry, target on record: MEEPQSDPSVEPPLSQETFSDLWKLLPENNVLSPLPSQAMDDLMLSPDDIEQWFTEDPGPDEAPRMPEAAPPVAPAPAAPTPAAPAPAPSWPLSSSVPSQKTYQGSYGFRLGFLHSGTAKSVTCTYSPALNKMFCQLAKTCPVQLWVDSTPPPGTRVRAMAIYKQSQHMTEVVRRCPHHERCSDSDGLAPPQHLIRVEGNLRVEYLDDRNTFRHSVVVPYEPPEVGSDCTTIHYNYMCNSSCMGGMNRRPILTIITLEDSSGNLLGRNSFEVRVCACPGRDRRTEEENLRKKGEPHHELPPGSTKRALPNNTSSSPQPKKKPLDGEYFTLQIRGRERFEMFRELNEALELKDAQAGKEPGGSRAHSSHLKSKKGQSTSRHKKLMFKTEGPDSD

From PubChem BioAssay record AID2060322 (NCATS, 2025).

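Curve-fitted potency for raising eGFP-delta133p53alpha fluorescence in NCI-H358 cells after a 24-hour treatment. The dilution series runs from about 7.7e-06 to 290 µM in 23 concentration columns. Potency, read at half-maximal effect from the fitted activation curve; lower values mean a more potent compound. Calls follow the dose-curve shape: a well-fitted activation curve with a large enough effect is active, and small, poorly fitted or top-dose-only effects are inconclusive.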

Values are in µM. All entries here are filed as inconclusive. Only part of the assay is shown, chiefly results filed as inconclusive. A potency from a partial, single-point or poor curve is only a rough figure. Some entries filed as inconclusive have a full curve.

| structure | Potency (µM) | remark |
|---|---|---|
| `COc1cc(C(=O)OC[C@@]2(O)CO[C@@H](O[C@H]3[C@H](Oc4ccc(O)cc4)O[C@H](CO)[C@@H](O)[C@@H]3O)[C@@H]2O)cc(OC)c1O` | 0.5004 | activator, partial curve |
| `O=C(Nc1ncc([N+](=O)[O-])s1)c1ccccc1O` | 37.93 | activator, single point |
| `Cc1cnc(-c2ccccc2C(C)C)nc1NCc1ccc(-n2ccnn2)cc1` | 33.81 | activator, single point |
| `CC(C)n1cnc2c(NCCCCCCNC(=O)OC(C)(C)C)nc(NCCO)nc21` | 1.931 | activator, single point |
| `CC(C)Oc1ccc(C(=O)N[C@H](CNC(=O)CN(C)C)Cc2ccc(-c3cn4cccc([C@H](C)O)c4n3)cc2)cc1Cl` | 0.3854 | activator, full curve |
| `Oc1ccc(CNc2ccccc2F)c2cccnc12` | 43.23 | activator, single point |
| `NCc1ccc(OCCCc2sc(-c3ccc4c(c3)/C(=N/Nc3nc5ccccc5s3)CCC4)nc2C(=O)O)cc1` | 0.543 | activator, full curve, poor fit |
| `Cc1csc(NC(=O)c2sc3nc4c(c(C(F)(F)F)c3c2N)CCC4)n1` | 37.93 | activator, single point |
| `C/C(=C\c1csc(C)n1)[C@@H]1C[C@@H]2O[C@@H]2CCC[C@H](C)[C@H](O)[C@@H](C)C(=O)C(C)(C)[C@@H](O)CC(=O)O1` | 0.0169 | activator, full curve, poor fit |
| `CCC(CO)Nc1nc(NCc2ccccc2)c2ncn(C(C)C)c2n1` (stereo not given) | 37.93 | activator, single point |
| `NCC(CNc1nc(Nc2cccc(NC(=O)N3CCCC3)c2)ncc1I)C(=O)c1cccs1` (stereo not given) | 30.13 | activator, single point |
| `C[C@H](CN(C)C)Oc1nc(Nc2cc3cccc(Cl)c3cn2)cnc1C#N` | 0.0757 | activator, partial curve, poor fit |
| `CCOC(=O)C1=C(C)NC(=S)NC1c1cccc(O)c1` (stereo not given) | 0.3854 | activator, full curve, poor fit |
| `CC(C)Oc1ccc(C(=O)NC(CNC(=O)CN(C)C)Cc2ccc(-c3cn4cccc(C(C)O)c4n3)cc2)cc1Cl` (stereo not given) | 0.2685 | activator, partial curve, poor fit |
| `O=C1Cc2cc(CCN3CCN(c4nsc5ccccc45)CC3)c(Cl)cc2N1` | 30.13 | activator, single point |
| `O=C(CCN1CCN(C(=O)OCc2cc(Cl)cc(Cl)c2)CC1)c1ccc2[nH]c(=O)oc2c1` | 37.93 | activator, single point |
| `CNC(=O)c1ccccc1Nc1cc(Nc2ccc(N3CCOCC3)cc2OC)ncc1C(F)(F)F` | 30.13 | activator, single point |
| `CC(=O)C1CCC2(C)C3=C(CCC12C)C1(C)CCC(=O)C(C)(C)C1CC3` (stereo not given) | 1.656 | activator, partial curve, poor fit |
| `C[C@@H]1COCCN1c1cc(C2(S(C)(=N)=O)CC2)nc(-c2ccnc3[nH]ccc23)n1` (stereo not given in full) | 38.44 | activator, single point |
| `Cc1ccc(NC(=O)c2ccc(CN3CC[C@H](N(C)C)C3)c(C(F)(F)F)c2)cc1Nc1nccc(-c2cncnc2)n1` | 5.221 | activator, partial curve |
| `CCCCn1c(=O)n(Cc2ccccc2F)c(=O)c2[nH]c(Cc3ccc(NC(C)=O)cc3)nc21` | 34.35 | activator, single point |
| `CC1(COc2ccc3c(c2)ncn3-c2ccc3cccc(N4CCC(N)CC4)c3n2)COC1` | 43.24 | activator, single point |
| `CS(=O)(=O)N1CCc2c(-c3cnc(N)nc3)nc(N3CCOCC3)nc21` | 10.69 | activator, partial curve, poor fit |
| `CN1Cc2sccc2C(c2ccc(O)c(O)c2)C1` (stereo not given) | 37.93 | activator, single point |
| `CC(/C=C/C(=O)NO)=C\[C@@H](C)C(=O)c1ccc(N(C)C)cc1` | 0.6012 | activator, full curve, poor fit |
| `Fc1ccc(-n2cc(CCCCN3CCC4(CC3)OCc3ccccc34)c3ccccc32)cc1` | 37.93 | activator, single point |
| `CC/C(=C(/CC)c1ccc(O)cc1)c1ccc(O)cc1` | 10.97 | activator, partial curve |
| `COc1ccc2c(c[n+](C)c3c4cc5c(cc4ccc23)OCO5)c1OC` | 21.33 | activator, single point |
| `CC(=O)c1c(OCCN2CCCCC2)c(OCCC(C)c2ccc(F)cc2)c2oc(C)nc2c1C` (stereo not given) | 37.93 | activator, single point |
| `Cc1c(O)cccc1C(=O)N[C@@H](CSc1ccccc1)[C@H](O)CN1C[C@H]2CCCC[C@H]2C[C@H]1C(=O)NC(C)(C)C` | 3.469 | activator, partial curve, poor fit |
| `COC(=O)Nc1ccc(-c2nc(N3CCOCC3)c3cnn(C4CCN(Cc5cccnc5)CC4)c3n2)cc1` | 0.0968 | activator, full curve, poor fit |
| `Nc1ncnc2c1ncn2[C@@H]1O[C@H](CO)C[C@@H]1O` | 8.627 | activator, full curve |
| `Cc1cc(F)ccc1[C@H]1C[C@@H](N2CCN3C(=O)CC[C@H]3C2)CCN1C(=O)N(C)[C@H](C)c1cc(C(F)(F)F)cc(C(F)(F)F)c1` | 37.93 | activator, single point |
| `Fc1ccc2[nH]c(CN3CCN(c4ccccn4)CC3)cc2c1` | 2.133 | activator, partial curve, poor fit |
| `CC(=O)/C=C1\C(=O)N(C)c2ccccc21` | 37.93 | activator, single point |
| `Cn1cnc([N+](=O)[O-])c1Sc1ncnc2nc[nH]c12` | 37.93 | activator, single point |
| `C[N+](C)(C)CCOC(=O)CCC(=O)OCC[N+](C)(C)C` | 1.069 | activator, full curve, poor fit |
| `O=C(C1CC1)N1CC[C@@H](Cn2c(-c3ccc(-c4ccc5occc5c4)cc3)nc3cnccc32)C1` | 10.86 | activator, partial curve, poor fit |
| `CCNc1cc(NC2CCC(O)CC2)nc(Nc2ccc3c(ccn3Cc3ccccc3)c2)n1` (stereo not given) | 43.24 | activator, partial curve, poor fit |

4 of the entries, repeated:

* CCCCn1c(=O)n(Cc2ccccc2F)c(=O)c2[nH]c(Cc3ccc(NC(C)=O)cc3)nc21 | Potency 34.35 µM (activator, single point)
* COC(=O)Nc1ccc(-c2nc(N3CCOCC3)c3cnn(C4CCN(Cc5cccnc5)CC4)c3n2)cc1 | Potency 0.0968 µM (activator, full curve, poor fit)
* O=C(C1CC1)N1CC[C@@H](Cn2c(-c3ccc(-c4ccc5occc5c4)cc3)nc3cnccc32)C1 | Potency 10.86 µM (activator, partial curve, poor fit)
* O=C(Nc1ncc([N+](=O)[O-])s1)c1ccccc1O | Potency 37.93 µM (activator, single point)